# The other results are listed elsewhere or left out.
# B1: Mermaid2 (Stilbonema majum) (protein)
# chain: MGSSHHHHHHSSGLVPRGSHMAASGWLRSPQGTVVKLYRRSLSWSKADEFCKDVDGRLVVDRTADMHLFLIKNVLKEKKSRVWVGLRRTAPHSRTWIWSDGTRQNEDDLNTNLWLRDEPNDAAGEEECALFMYSPWEKAWGLNDYLCRGGCRSYQFICEKGIR
# Key:
# Test in all cases: glycan array binding signal (z-score within array); higher = stronger binding
# Details in all cases: glycan notation: IUPAC condensed, linker removed
# [1] = target: Fuc(a1-2)Gal(b1-4)GlcNAc(b1-3)Gal(b1-4)GlcNAc(b1-3)Gal(b1-4)GlcNAc
# Summary of the method: (§1)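 Negative Z-scores can be read as non-binding. The Z-score is calculated within each array and then averaged across arrays of one protein sequence at different concentrations or buffers and across linkers. Arrays, 3228 in all, were curated from the Consortium for Functional Glycomics database and kept only where the protein sequence was available.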
# [2] = target: Fuc(a1-2)Gal(b1-4)GlcNAc(b1-3)GalNAc
# Summary of the method: as §1
# [3] = target: Fuc(a1-2)Gal(b1-4)GlcNAc(b1-3)[Fuc(a1-2)Gal(b1-4)GlcNAc(b1-6)]GalNAc
# Summary of the method: as §1
# [4] = target: Fuc(a1-2)Gal(b1-4)GlcNAc(b1-3)[Fuc(a1-3)[Gal(b1-4)]GlcNAc(b1-6)]Gal(b1-4)Glc
# Summary of the method: as §1
# [5] = target: Fuc(a1-2)Gal(b1-4)GlcNAc(b1-6)GalNAc
# Summary of the method: as §1
# [6] = target: Fuc(a1-2)Gal(b1-4)GlcNAc6S
# Summary of the method: as §1
# [7] = target: Fuc(a1-2)Gal(b1-4)[Fuc(a1-3)]GlcNAc
# Summary of the method: as §1
# [8] = target: Fuc(a1-2)Gal(b1-4)[Fuc(a1-3)]GlcNAc(b1-2)Man(a1-3)[Fuc(a1-2)Gal(b1-4)[Fuc(a1-3)]GlcNAc(b1-2)Man(a1-6)]Man(b1-4)GlcNAc(b1-4)[Fuc(a1-6)]GlcNAc
# Summary of the method: as §1
# [9] = target: Fuc(a1-2)Gal(b1-4)[Fuc(a1-3)]GlcNAc(b1-2)[Fuc(a1-2)Gal(b1-4)[Fuc(a1-3)]GlcNAc(b1-4)]Man(a1-3)[Fuc(a1-2)Gal(b1-4)[Fuc(a1-3)]GlcNAc(b1-2)Man(a1-6)]Man(b1-4)GlcNAc(b1-4)GlcNAc
# Summary of the method: as §1
# [10] = target: Fuc(a1-2)Gal(b1-4)[Fuc(a1-3)]GlcNAc(b1-3)Gal(b1-4)[Fuc(a1-3)]GlcNAc
# Summary of the method: as §1
# [11] = target: Fuc(a1-2)Gal(b1-4)[Fuc(a1-3)]GlcNAc(b1-3)Gal(b1-4)[Fuc(a1-3)]GlcNAc(b1-3)Gal(b1-4)[Fuc(a1-3)]GlcNAc
# Summary of the method: as §1
# [12] = target: Fuc(a1-2)Gal(b1-4)[Fuc(a1-3)]GlcNAc(b1-3)GalNAc
# Summary of the method: as §1
# [13] = target: Fuc(a1-2)Gal(b1-4)[Fuc(a1-3)]GlcNAc(b1-3)[Neu5Ac(a2-6)Gal(b1-4)GlcNAc(b1-6)]Gal(b1-4)Glc
# Summary of the method: as §1
# [14] = target: Fuc(a1-2)Gal3S(b1-4)GlcNAc
# Summary of the method: as §1
# [15] = target: Fuc(a1-2)Gal6S(b1-3)GlcNAc
# Summary of the method: as §1
# [16] = target: Fuc(a1-2)Gal6S(b1-3)GlcNAc6S
# Summary of the method: as §1
# Fuc(a1-2)Gal6S(b1-4)Glc = target: Fuc(a1-2)Gal6S(b1-4)Glc
# Summary of the method: as §1
# [17] = target: Fuc(a1-2)Gal6S(b1-4)Glc6S
# Summary of the method: as §1
# Fuc(a1-2)[Gal(a1-3)]Gal = target: Fuc(a1-2)[Gal(a1-3)]Gal
# Summary of the method: as §1
# [18] = target: Fuc(a1-2)[Gal(a1-3)]Gal(b1-3)GalNAc
# Summary of the method: as §1
# [19] = target: Fuc(a1-2)[Gal(a1-3)]Gal(b1-3)GalNAc(b1-3)Gal(a1-4)Gal(b1-4)Glc
# Summary of the method: as §1
# [20] = target: Fuc(a1-2)[Gal(a1-3)]Gal(b1-3)GlcNAc
# Summary of the method: as §1
# [21] = target: Fuc(a1-2)[Gal(a1-3)]Gal(b1-3)GlcNAc(b1-2)Man(a1-3)[Fuc(a1-2)[Gal(a1-3)]Gal(b1-3)GlcNAc(b1-2)Man(a1-6)]Man(b1-4)GlcNAc(b1-4)GlcNAc
# Summary of the method: as §1
# [22] = target: Fuc(a1-2)[Gal(a1-3)]Gal(b1-3)GlcNAc(b1-2)Man(a1-3)[Fuc(a1-2)[Gal(a1-3)]Gal(b1-3)GlcNAc(b1-2)Man(a1-6)]Man(b1-4)GlcNAc(b1-4)[Fuc(a1-6)]GlcNAc
# Summary of the method: as §1
# [23] = target: Fuc(a1-2)[Gal(a1-3)]Gal(b1-3)GlcNAc(b1-3)GalNAc
# Summary of the method: as §1
# [24] = target: Fuc(a1-2)[Gal(a1-3)]Gal(b1-3)GlcNAc(b1-6)GalNAc
# Summary of the method: as §1
# [25] = target: Fuc(a1-2)[Gal(a1-3)]Gal(b1-4)Glc
# Summary of the method: as §1
# [26] = target: Fuc(a1-2)[Gal(a1-3)]Gal(b1-4)GlcNAc
# Summary of the method: as §1
# [27] = target: Fuc(a1-2)[Gal(a1-3)]Gal(b1-4)GlcNAc(b1-2)Man
# Summary of the method: as §1
# [28] = target: Fuc(a1-2)[Gal(a1-3)]Gal(b1-4)GlcNAc(b1-2)Man(a1-3)[Fuc(a1-2)[Gal(a1-3)]Gal(b1-4)GlcNAc(b1-2)Man(a1-6)]Man(b1-4)GlcNAc(b1-4)GlcNAc
# Summary of the method: as §1
# [29] = target: Fuc(a1-2)[Gal(a1-3)]Gal(b1-4)GlcNAc(b1-2)Man(a1-3)[Fuc(a1-2)[Gal(a1-3)]Gal(b1-4)GlcNAc(b1-2)Man(a1-6)]Man(b1-4)GlcNAc(b1-4)[Fuc(a1-6)]GlcNAc
# Summary of the method: as §1
# [30] = target: Fuc(a1-2)[Gal(a1-3)]Gal(b1-4)GlcNAc(b1-3)GalNAc
# Summary of the method: as §1
# [31] = target: Fuc(a1-2)[Gal(a1-3)]Gal(b1-4)GlcNAc(b1-3)[Fuc(a1-2)[Gal(a1-3)]Gal(b1-4)GlcNAc(b1-6)]GalNAc
# Summary of the method: as §1
# [32] = target: Fuc(a1-2)[Gal(a1-3)]Gal(b1-4)GlcNAc(b1-6)GalNAc
# Summary of the method: as §1
# [33] = target: Fuc(a1-2)[Gal(a1-3)]Gal(b1-4)[Fuc(a1-3)]Glc
# Summary of the method: as §1
# [34] = target: Fuc(a1-2)[Gal(a1-3)]Gal(b1-4)[Fuc(a1-3)]GlcNAc
# Summary of the method: as §1
# [35] = target: Fuc(a1-2)[Gal(a1-3)]Gal(b1-4)[Fuc(a1-3)]GlcNAc(b1-3)GalNAc
# Summary of the method: as §1
# [36] = target: Fuc(a1-2)[Gal(a1-4)]Gal(b1-4)GlcNAc
# Summary of the method: as §1
# [37] = target: Fuc(a1-2)[GalNAc(a1-3)]Gal
# Summary of the method: as §1
# [38] = target: Fuc(a1-2)[GalNAc(a1-3)]Gal(b1-3)GalNAc(a1-3)[Fuc(a1-2)]Gal(b1-4)GlcNAc
# Summary of the method: as §1
# [39] = target: Fuc(a1-2)[GalNAc(a1-3)]Gal(b1-3)GalNAc(b1-3)Gal(a1-4)Gal(b1-4)Glc
# Summary of the method: as §1
# [40] = target: Fuc(a1-2)[GalNAc(a1-3)]Gal(b1-3)GlcNAc
# Summary of the method: as §1
# [41] = target: Fuc(a1-2)[GalNAc(a1-3)]Gal(b1-3)GlcNAc(b1-2)Man(a1-3)[Fuc(a1-2)[GalNAc(a1-3)]Gal(b1-3)GlcNAc(b1-2)Man(a1-6)]Man(b1-4)GlcNAc(b1-4)GlcNAc
# Summary of the method: as §1
# [42] = target: Fuc(a1-2)[GalNAc(a1-3)]Gal(b1-3)GlcNAc(b1-2)Man(a1-3)[Fuc(a1-2)[GalNAc(a1-3)]Gal(b1-3)GlcNAc(b1-2)Man(a1-6)]Man(b1-4)GlcNAc(b1-4)[Fuc(a1-6)]GlcNAc
# Summary of the method: as §1
# [43] = target: Fuc(a1-2)[GalNAc(a1-3)]Gal(b1-3)GlcNAc(b1-3)GalNAc
# Summary of the method: as §1
binder,measurement,setting,value
B1,glycan array binding signal (z-score),[1],-0.772
same,glycan array binding signal (z-score),[2],0.031
same,glycan array binding signal (z-score),[3],0.788
same,glycan array binding signal (z-score),[4],-0.376
same,glycan array binding signal (z-score),[5],-0.181
same,glycan array binding signal (z-score),[6],0.035
same,glycan array binding signal (z-score),[7],0.558
same,glycan array binding signal (z-score),[8],0.062
same,glycan array binding signal (z-score),[9],-0.12
same,glycan array binding signal (z-score),[10],-0.77
same,glycan array binding signal (z-score),[11],-0.217
same,glycan array binding signal (z-score),[12],-0.123
same,glycan array binding signal (z-score),[13],-0.749
same,glycan array binding signal (z-score),[14],-0.786
same,glycan array binding signal (z-score),[15],-0.388
same,glycan array binding signal (z-score),[16],4.48
same,glycan array binding signal (z-score),Fuc(a1-2)Gal6S(b1-4)Glc,-0.715
same,glycan array binding signal (z-score),[17],-0.424
same,glycan array binding signal (z-score),Fuc(a1-2)[Gal(a1-3)]Gal,-0.319
same,glycan array binding signal (z-score),[18],0.737
same,glycan array binding signal (z-score),[19],-0.308
same,glycan array binding signal (z-score),[20],-0.651
same,glycan array binding signal (z-score),[21],-0.483
same,glycan array binding signal (z-score),[22],0.121
same,glycan array binding signal (z-score),[23],-0.082
same,glycan array binding signal (z-score),[24],-0.026
same,glycan array binding signal (z-score),[25],-0.23
same,glycan array binding signal (z-score),[26],-0.824
same,glycan array binding signal (z-score),[27],-0.059
same,glycan array binding signal (z-score),[28],-0.458
same,glycan array binding signal (z-score),[29],-0.468
same,glycan array binding signal (z-score),[30],-0.602
same,glycan array binding signal (z-score),[31],-0.477
same,glycan array binding signal (z-score),[32],0.562
same,glycan array binding signal (z-score),[33],-0.396
same,glycan array binding signal (z-score),[34],-0.315
same,glycan array binding signal (z-score),[35],-0.328
same,glycan array binding signal (z-score),[36],2.44
same,glycan array binding signal (z-score),[37],-0.395
same,glycan array binding signal (z-score),[38],-0.693
same,glycan array binding signal (z-score),[39],-0.024
same,glycan array binding signal (z-score),[40],-0.292
same,glycan array binding signal (z-score),[41],-1.07
same,glycan array binding signal (z-score),[42],-0.504
same,glycan array binding signal (z-score),[43],0.751

# Given as tab-separated lines: entries from further up
binder	measurement	setting	value
B1	glycan array binding signal (z-score)	[8]	0.062
same	glycan array binding signal (z-score)	[40]	-0.292

# Source: the supplement of paper PMC8728848
